Measurements: patent US7705016B2, “Regulation of food intake by modulation of long-chain fatty acyl-CoA levels in the hypothalamus” (Albert Einstein College of Medicine of Yeshiva University, priority 2003, dated 2010)

How the values were obtained:
[1] = test system: male Sprague-Dawley (S-D) rats; assay: ICV OA infusion with pancreatic-insulin clamp (insulin action studies); assay type: in vivo, rat
Text: Insulin action studies. The experimental protocol herein was designed to examine the effect of nutritional status on the ability of long-chain fatty acids in the hypothalamus to modulate carbohydrate metabolism. Rats (n=43) were implanted with chronic catheters as previously described (Liu et al., 1998). After full recovery from the catheterization, animals were randomized into three groups HF55 (n=16), HF80 (n=9), or HF140 (n=18) and were allowed to consume their allocated diet for three days. On the night prior to the in vivo study all rats received 55 kcal to ensure a similar nutritional state at the start of the metabolic studies. All studies were performed in awake, unstressed, chronically catheterized rats. At t=−120 (FIG. 7a), a primed-continuous infusion of ICV OA (total dose 30- or 300-nmol) or Vehicle (HBP 10% in aCSF) was initiated and maintained throughout the duration of the study. Plasma glucose was measured periodically initiating at the onset (t=−120) of the ICV infusion and lasting throughout the duration of the study. Plasma samples for determination of insulin, leptin, and non-esterified fatty acid concentration were obtained at the onset (t=−120) and at 30 min intervals during the study. At t=0, and a primed-continuous infusion of HPLC-purified [3-3H]-glucose (New England Nuclear, Boston, Mass.; 40 μCi bolus, 0.4 μCi/min for duration of the study) was initiated and maintained for the last four hours of the study. Samples for determination of ^3H-glucose specific activity were obtained at 10-minute intervals throughout infusions. Finally, at t=120, a pancreatic-insulin clamp study was initiated and maintained for two hours. During this procedure, a primed-continuous infusion of regular insulin (1 mU/kg/min) was administered, and a variable infusion of 25% glucose solution was started at t=120 and periodically adjusted to clamp the plasma glucose concentration at ˜7 mM. The rate of insulin infusion was designed to replace the plasma insulin concentration at ˜the average basal levels in post-absorptive rats. In order to control for possible effects of the ICV injections on endocrine pancreas, somatostatin (3 μg/kg/min) was coinfused with insulin to inhibit endogenous insulin secretion. At the end of the in vivo studies, rats were anesthetized (pentobarbital 55 mg/kg body weight, intravenously) and tissue samples were freeze-clamped in situ with aluminum tongs pre-cooled in liquid nitrogen. All tissue samples were stored at −80° C. for subsequent analysis.
(§1) Analytical Procedures and Calculations. Plasma glucose was measured by the glucose oxidase method (Glucose Analyzer II, Beckman Instruments, Inc. Fullerton, Calif., USA). Plasma insulin and leptin levels were determined by RIA (rat Leptin RIA kit, Linco Research Inc., St. Charles, Mo.). Serum adiponectin was measured by RIA (Linco Research, Inc., St. Charles, Mo.). Plasma non-esterified fatty acid concentrations were determined an enzymatic method by an automated kit according to the manufacturer's specifications (Waco Pure Chemical Industries. Osaka, Japan). The radioactivity of [3-^3H]glucose in plasma was measured from supernatants of Ba (OH)2 and from ZnSO4 precipitates (Somogyi procedure), after each was evaporated to dryness for the removal of tritiated water. Hepatic uridine diphosphoglucose (UDP-glucose) concentrations and specific activities were obtained by two sequential chromatographic separations, as previously described (Giaccari and Rossetti, 1989; 1992; Rossetti et al., 1993; 1996). Calculations were performed as described (Barzilai et al., 1997).

[2] = test system: hepatic glucose fluxes; assay: Hepatic glucose fluxes (flux through Glc-6-Pase, glucose cycling, direct pathway) after ICV OA; assay type: in vivo, rat
Description: as §1
ICV OA markedly decreases the in vivo flux through Glc-6-Pase. GP represents the net contribution of glucosyl units derived from gluconeogenesis and glycogenolysis. However, a portion of glucose entering the liver via phophorylation by glucokinase is also a substrate for de-phosphorylation via Glc-6-Pase. This futile cycle between glucokinase and Glc-6-Pase is commonly named glucose cycling and accounts for the difference between the total glucose output (flux through Glc-6-Pase) and GP (FIG. 9a).
In order to further delineate the mechanisms responsible for the effect of ICV OA infusion on hepatic glucose production we estimated the in vivo flux through Glc-6-Pase and the relative contribution of glucose cycling to glucose output (Table 3; FIG. 9b,c). FIG. 9b,c depict the effect of ICV OA and ICV vehicle on the rates of hepatic glucose fluxes during the pancreatic-insulin clamp procedure. In the presence of similar plasma insulin concentrations, the rate of glucose production (as shown in FIG. 8a) was decreased by ICV Office Action in the HF55 and HF80 but not in the ad libitum fed rats (HF140). […] The latter finding taken together with the moderate increase in the % direct pathway (Table 3) is consistent with a stimulatory effect of central OA on hepatic glucose phosphorylation. […] These effects of ICV OA are blunted after three days of voluntary overfeeding.

[3] = Basal, HF140, ICV OA (300 nmol)
[4] = Clamp, HF140, ICV OA (300 nmol)

CCCCCCCC/C=C\CCCCCCCC(=O)O [OA, oleic acid] was tested, and the “Body Weight” value ([1]; Basal, HF55, ICV OA) was 295 ± 6 g, the “FFA” value ([1]; Basal, HF55, ICV OA) was 0.5 ± 0.1 mmol/L and the “Food Intake(kcal/d)” value ([1]; Basal, HF55, ICV OA) was 55 kcal/day. For the same compound, the “Glucose” value ([1]; Basal, HF55, ICV OA) was 7.4 ± 0.2 mmol/L, the “Insulin” value ([1]; Basal, HF55, ICV OA) was 0.7 ± 0.3 ng/mL and the “Leptin” value ([1]; Basal, HF55, ICV OA) was 1.3 ± 0.2 ng/mL. The “Δ Body Weight” value ([1]; Basal, HF55, ICV OA) was -15 ± 3 g, the “Body Weight” value ([1]; Basal, HF80, ICV OA) was -307 ± 4 g and the “FFA” value ([1]; Basal, HF80, ICV OA) was 0.4 ± 0.1 mmol/L. For the same compound, the “Food Intake(kcal/d)” value ([1]; Basal, HF80, ICV OA) was 80 kcal/day, the “Glucose” value ([1]; Basal, HF80, ICV OA) was 7.2 ± 0.3 mmol/L and the “Insulin” value ([1]; Basal, HF80, ICV OA) was 0.8 ± 0.2 ng/mL. For the same compound, the “Leptin” value ([1]; Basal, HF80, ICV OA) was 1.0 ± 0.1 ng/mL, the “Δ Body Weight” value ([1]; Basal, HF80, ICV OA) was -3 ± 8 g and the “Body Weight” value ([1]; Basal, HF140, ICV OA (30 nmol)) was 312 ± 12 g. The “FFA” value ([1]; Basal, HF140, ICV OA (30 nmol)) was 0.4 ± 0.1 mmol/L, the “Food Intake(kcal/d)” value ([1]; Basal, HF140, ICV OA (30 nmol)) was 137 ± 6 kcal/day and the “Glucose” value ([1]; Basal, HF140, ICV OA (30 nmol)) was 7.4 ± 0.1 mmol/L. For the same compound, the “Insulin” value ([1]; Basal, HF140, ICV OA (30 nmol)) was 1.7 ± 0.4 ng/mL, the “Leptin” value ([1]; Basal, HF140, ICV OA (30 nmol)) was 1.8 ± 0.2 ng/mL and the “Δ Body Weight” value ([1]; Basal, HF140, ICV OA (30 nmol)) was 13 ± 4 g. The “Body Weight” value [1, 3] was 301 ± 9 g, the “FFA” value [1, 3] was 0.5 ± 0.1 mmol/L and the “Food Intake(kcal/d)” value [1, 3] was 150 ± 4 kcal/day. For the same compound, the “Glucose” value [1, 3] was 7.4 ± 0.2 mmol/L, the “Insulin” value [1, 3] was 1.8 ± 0.4 ng/mL and the “Leptin” value [1, 3] was 2.0 ± 0.3 ng/mL. The “Δ Body Weight” value [1, 3] was 11 ± 3 g, the “FFA” value ([1]; Clamp, HF55, ICV OA) was 0.4 ± 0.1 mmol/L and the “Glucose” value ([1]; Clamp, HF55, ICV OA) was 7.3 ± 0.3 mmol/L. For the same compound, the “Insulin” value ([1]; Clamp, HF55, ICV OA) was 0.8 ± 0.2 ng/mL, the “Leptin” value ([1]; Clamp, HF55, ICV OA) was 0.9 ± 0.1 ng/mL and the “FFA” value ([1]; Clamp, HF80, ICV OA) was 0.4 ± 0.1 mmol/L. The “Glucose” value ([1]; Clamp, HF80, ICV OA) was 7.1 ± 0.3 mmol/L, the “Insulin” value ([1]; Clamp, HF80, ICV OA) was 0.8 ± 0.1 ng/mL and the “Leptin” value ([1]; Clamp, HF80, ICV OA) was 1.0 ± 0.1 ng/mL. For the same compound, the “FFA” value ([1]; Clamp, HF140, ICV OA (30 nmol)) was 0.4 ± 0.1 mmol/L, the “Glucose” value ([1]; Clamp, HF140, ICV OA (30 nmol)) was 7.5 ± 0.2 mmol/L and the “Insulin” value ([1]; Clamp, HF140, ICV OA (30 nmol)) was 1.1 ± 0.2 ng/mL. For the same compound, the “Leptin” value ([1]; Clamp, HF140, ICV OA (30 nmol)) was 1.6 ± 0.2 ng/mL, the “FFA” value [1, 4] was 0.5 ± 0.1 mmol/L and the “Glucose” value [1, 4] was 7.8 ± 0.3 mmol/L. The “Insulin” value [1, 4] was 1.2 ± 0.1 ng/mL, the “Leptin” value [1, 4] was 1.9 ± 0.4 ng/mL and the “stimulatory effect on GIR, HF55 relative to HF80” value ([1]; ICV OA 30 nmol) was roughly 2 fold. For the same compound, the “% Direct (contribution of plasma glucose to the hepatic UDPglucose pool)” value ([2]; HF55) was 17 ± 4%, the “^3H-Glucose Plasma SA (dpm/nmol)” value ([2]; HF55) was 41.2 ± 4.2 dpm/nmol and the “UDPglucose Liver SA (dpm/nmol)” value ([2]; HF55, end of pancreatic/insulin clamp) was 7.4 ± 2.0 dpm/nmol. The “% Direct (contribution of plasma glucose to the hepatic UDPglucose pool)” value ([2]; HF140) was 18 ± 2%, the “^3H-Glucose Plasma SA (dpm/nmol)” value ([2]; HF140) was 54.5 ± 3.1 dpm/nmol and the “UDPglucose Liver SA (dpm/nmol)” value ([2]; HF140, end of pancreatic/insulin clamp) was 10.0 ± 1.4 dpm/nmol.
